40 molecules from PubChem BioAssay AID493014 (National Center for Advancing Translational Sciences (NCATS), 2011) can be followed below.

The assay is described as follows: qHTS Assay to Find Inhibitors of Chronic Active B-Cell Receptor Signaling. As to conditions: ABC-DLBCL IkBa-CBG/CBR reporter, luminescence ratio (green luciferase fused to IkBa over red control in TMD8 lymphoma cells), 4 h. Put shortly: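 TMD8 ABC-DLBCL cells carrying doxycycline-inducible green luciferase fused to IkappaBalpha plus unfused red luciferase were exposed to compounds (up to 46 uM) for 4 hrs at 37C. Activity came from the overlap-corrected green/red luminescence ratio.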

Where [1] appears, read: measured here: CBR red luminescence, cell number.
The mark [2] stands for this setting: measured here: IkBa-CBG green luminescence.

The structures appear in SMILES notation. Some of the results follow. These are further read-outs of the screen, such as a control signal, another cell line or another target. No call is given for them. Compounds called inactive in the main read-out are mostly missing here. The note in brackets gives the kind of curve behind each potency; many fits are weak.

As to `CCC(C(=O)NCCCN(CC)Cc1ccccc1)n1nc(C)c2sc3ccccc3c2c1=O` (stereo not drawn), under setting [1], the AC50 (as a rule, the concentration giving half of the maximal activity seen) was 10 µM [falling, partial curve].

As to `O=C(c1cc(-c2ccc3c(c2)OCO3)on1)N1CCCCC1`, the half-maximal activity concentration (AC50) under setting [1] was 2 µM [falling, full curve, poor fit].

For `Cc1ccc(S(=O)(=O)Nc2ccc(S(=O)(=O)NC(C)(C)C)cc2)cc1`, the AC50 under setting [1] was 14.6 µM [falling, partial curve, poor fit].

On to `COc1cc(OC)c(C2N(c3ccc(Cl)cc3)C(=O)C3CCCN32)cc1OC` (stereo not drawn), for which the AC50 under setting [1] is 31.6 µM [rising, partial curve, poor fit].

As for `Cc1ccc(N=Nc2c(N)nn(-c3ccccc3)c2N)cc1`, the AC50 under setting [1] was 11.6 µM [falling, partial curve].

As to `Cc1ccc(OCC(=O)NCc2cccs2)cc1`, the AC50 under setting [1] was 13 µM [falling, single point].

For `Cc1ccc(/C([O-])=C(/C(=S)NCc2ccco2)[n+]2ccccc2)cc1[N+](=O)[O-]`, under setting [1], the AC50 is 3.98 µM [rising, partial curve, poor fit].

On to `Cn1ncc2c(Nc3cccc(F)c3)ncnc21`, for which, under setting [1], the concentration at half-maximal activity (AC50) is 3.98 µM [falling, partial curve, poor fit].

On to `O=C(NCCO)c1cc2c([nH]c3ccccc32)c(-c2ccc(F)cc2)n1`, for which the AC50 under setting [1] is 14.1 µM [falling, single point].

For `Cc1cc(Cl)ccc1OCCn1cncn1`, under setting [1], the AC50 is 35.5 µM [rising, single point].

As to `COc1ccc(NC(=S)N(CCCN2CCOCC2)Cc2cn(C)c3ccccc23)cc1`, under setting [1], the AC50 was 11.6 µM [rising, partial curve, poor fit].

As to `O=C(N/N=C/c1ccc2ccccc2c1)c1ccc(COc2ccc3c(c2)CCC3)o1`, under setting [1], the AC50 was 0.447 µM [falling, full curve, poor fit].

Take `COc1ccc(C2CNC(=O)C2)cc1OC1CCCC1` (stereo not drawn): the AC50 under setting [1] is 4.47 µM [rising, full curve, poor fit].

As for `O=C1/C(=C/c2ccccn2)SC(=S)N1N1CCOCC1`, under setting [1], the AC50 was 2.24 µM [rising, partial curve, poor fit].

Consider `Cc1c(C(=O)N/N=C/c2ccc(Cl)cc2)[nH]c2ccc(Cl)cc12`, for which the half-maximal activity concentration (AC50) reads like this: under setting [1], 1.3 µM [rising, full curve, poor fit]; under setting [2], 2.06 µM [falling, full curve].

For the molecule `O=C(Nc1cnc2ccccc2c1)c1ccncc1`, the AC50 under setting [1] is 16.4 µM [falling, partial curve].

With `O=c1c(O)c(-c2ccc(O)cc2O)oc2cc(O)cc(O)c12`, the AC50 under setting [1] is 3.66 µM [rising, partial curve] and the AC50 under setting [2] was 7.31 µM [falling, partial curve].

`O=C1CC(N2CCN(C/C=C/c3ccccc3)CC2)C(=O)N1Cc1cccs1` (stereo not drawn): the AC50 under setting [1] is 3.66 µM [rising, partial curve, poor fit].

For the molecule `COc1ccc2c(C#CCCO)c(-c3ccc(S(C)(=O)=O)cc3)sc2c1`, the concentration at half-maximal activity (AC50) was 16.4 µM [rising, single point] under setting [1] and 20.6 µM [falling, partial curve] under setting [2].

For `CC(C)CN1C(=O)c2ccc(C(=O)Nc3ccccn3)cc2C1=O`, under setting [1], the concentration at half-maximal activity (AC50) is 6.31 µM [falling, single point].

As for `Cn1cc(/C(Cc2ccccc2)=N\O)c2ccccc21`, the AC50 under setting [1] is 10 µM [rising, partial curve].

As to `CCn1c(SCC(=O)Nc2ccc(-c3nc4ccc(C)cc4s3)cc2)nnc1-c1ccccc1`, the AC50 under setting [1] is 29.1 µM [rising, single point].

With `CCC1CCCCN1CCCNC(=O)C1CCN(Cc2nc(-c3ccc(Cl)cc3)oc2C)CC1` (stereo not drawn), the AC50 under setting [1] is 8.91 µM [falling, partial curve, poor fit].

With `COc1cccc(-c2ccc3ncnc(N(C)Cc4ccco4)c3c2)c1`, the AC50 under setting [1] was 29.1 µM [falling, single point].

`COc1ccc(/C=N/NC(=O)c2cccc(NC(C)=O)c2)c(OC)c1`: the AC50 under setting [1] is 15.8 µM [falling, partial curve, poor fit].

As for `Cc1cc(C(=O)N/N=C/c2sccc2C)no1`, the AC50 under setting [1] is 20.6 µM [falling, partial curve].

For `Oc1c(C(Nc2cccc(C(F)(F)F)c2)c2ccncc2)ccc2cccnc12` (stereo not drawn), the AC50 under setting [1] was 15.8 µM [falling, single point].

On to `Cn1c(=O)c2c(ncn2CC(=O)Nc2ccccc2Sc2ccccc2)n(C)c1=O`, for which the AC50 under setting [1] is 6.31 µM [falling, single point].

For `COc1ccc(OC)c(NC(=O)C(CCS(C)(=O)=O)NC(C)=O)c1` (stereo not drawn), under setting [1], the AC50 was 29.1 µM [rising, single point].

For `COc1ccc(C(=O)COC(=O)Cn2c(C)csc2=O)c(OC)c1`, under setting [1], the AC50 is 18.4 µM [rising, partial curve].

Regarding `CC(C)OCCCNc1ncnc2c1[nH]c1ccccc12`, the AC50 under setting [1] is 29.1 µM [falling, single point].

As to `Nc1nc(Nc2ccccc2)nc(NC2CCCCC2)c1[N+](=O)[O-]`, the AC50 under setting [1] is 35.5 µM [falling, partial curve, poor fit].

For `CCCN1CCC(NC(=S)Nc2ccc(S(N)(=O)=O)cc2)CC1`, the AC50 under setting [1] is 35.5 µM [rising, partial curve, poor fit].

Take `Nc1nnc(SCC(=O)Nc2cc(S(=O)(=O)N3CCOCC3)ccc2N2CCCC2)s1`: the half-maximal activity concentration (AC50) under setting [1] is 25.9 µM [rising, single point].

With `Cc1nnc(SCC(=O)Nc2nsc(-c3ccc(C(C)(C)C)cc3)n2)s1`, the AC50 under setting [1] was 23.1 µM [rising, partial curve, poor fit].

Take `C=CC(=C)CC(NC)c1ccccc1` (stereo not drawn): the AC50 under setting [1] is 0.562 µM [rising, full curve, poor fit].

For the molecule `O=C1CC(c2ccc(O)c(O)c2)Oc2cc(O)cc(O)c21` (stereo not drawn), the AC50 under setting [1] was 10 µM [falling, partial curve, poor fit].

For `Cc1ccc(C)c(Cc2c(C)nc3c(C(=O)NCc4ccc5c(c4)OCO5)cnn3c2C)c1`, under setting [1], the AC50 is 0.206 µM [falling, full curve, poor fit].

For `O=c1c2ccccc2oc2nc(-c3ccco3)n(-c3ccccc3)c(=O)c12`, the AC50 under setting [1] was 0.82 µM [falling, full curve].

As for `Cc1ccc2nc(SCC(=O)Nc3cc([N+](=O)[O-])ccc3F)[nH]c2c1`, the AC50 under setting [1] is 32.6 µM [rising, partial curve, poor fit].
